The supplement of paper PMC12819154, “High-throughput peptide-centric local stability assay extends protein–ligand identification to membrane proteins, tissues and bacteria” (Nature Structural & Molecular Biology, 2025)
The other results are listed elsewhere or left out. Most values lie at the level of the controls, where differences are scatter.

Sequences of proteins named here, by UniProt entry; tags and fusion partners are left off. A change or cut given only in a name is not applied to a line headed by its entry.
UniProt A2AIV8: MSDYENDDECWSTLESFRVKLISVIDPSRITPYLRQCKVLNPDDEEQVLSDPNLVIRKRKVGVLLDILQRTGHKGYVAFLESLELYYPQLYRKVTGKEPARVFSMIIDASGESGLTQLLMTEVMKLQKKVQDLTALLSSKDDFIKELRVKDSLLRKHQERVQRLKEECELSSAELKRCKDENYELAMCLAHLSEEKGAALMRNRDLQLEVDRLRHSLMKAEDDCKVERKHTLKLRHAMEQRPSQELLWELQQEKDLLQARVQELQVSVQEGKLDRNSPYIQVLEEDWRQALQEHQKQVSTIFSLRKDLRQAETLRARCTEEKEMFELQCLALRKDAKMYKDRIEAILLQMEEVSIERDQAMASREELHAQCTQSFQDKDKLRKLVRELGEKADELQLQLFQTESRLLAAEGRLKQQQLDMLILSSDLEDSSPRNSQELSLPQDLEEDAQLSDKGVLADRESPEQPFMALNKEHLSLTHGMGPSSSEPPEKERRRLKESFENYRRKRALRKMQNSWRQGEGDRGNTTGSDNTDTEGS
UniProt A2AIV2: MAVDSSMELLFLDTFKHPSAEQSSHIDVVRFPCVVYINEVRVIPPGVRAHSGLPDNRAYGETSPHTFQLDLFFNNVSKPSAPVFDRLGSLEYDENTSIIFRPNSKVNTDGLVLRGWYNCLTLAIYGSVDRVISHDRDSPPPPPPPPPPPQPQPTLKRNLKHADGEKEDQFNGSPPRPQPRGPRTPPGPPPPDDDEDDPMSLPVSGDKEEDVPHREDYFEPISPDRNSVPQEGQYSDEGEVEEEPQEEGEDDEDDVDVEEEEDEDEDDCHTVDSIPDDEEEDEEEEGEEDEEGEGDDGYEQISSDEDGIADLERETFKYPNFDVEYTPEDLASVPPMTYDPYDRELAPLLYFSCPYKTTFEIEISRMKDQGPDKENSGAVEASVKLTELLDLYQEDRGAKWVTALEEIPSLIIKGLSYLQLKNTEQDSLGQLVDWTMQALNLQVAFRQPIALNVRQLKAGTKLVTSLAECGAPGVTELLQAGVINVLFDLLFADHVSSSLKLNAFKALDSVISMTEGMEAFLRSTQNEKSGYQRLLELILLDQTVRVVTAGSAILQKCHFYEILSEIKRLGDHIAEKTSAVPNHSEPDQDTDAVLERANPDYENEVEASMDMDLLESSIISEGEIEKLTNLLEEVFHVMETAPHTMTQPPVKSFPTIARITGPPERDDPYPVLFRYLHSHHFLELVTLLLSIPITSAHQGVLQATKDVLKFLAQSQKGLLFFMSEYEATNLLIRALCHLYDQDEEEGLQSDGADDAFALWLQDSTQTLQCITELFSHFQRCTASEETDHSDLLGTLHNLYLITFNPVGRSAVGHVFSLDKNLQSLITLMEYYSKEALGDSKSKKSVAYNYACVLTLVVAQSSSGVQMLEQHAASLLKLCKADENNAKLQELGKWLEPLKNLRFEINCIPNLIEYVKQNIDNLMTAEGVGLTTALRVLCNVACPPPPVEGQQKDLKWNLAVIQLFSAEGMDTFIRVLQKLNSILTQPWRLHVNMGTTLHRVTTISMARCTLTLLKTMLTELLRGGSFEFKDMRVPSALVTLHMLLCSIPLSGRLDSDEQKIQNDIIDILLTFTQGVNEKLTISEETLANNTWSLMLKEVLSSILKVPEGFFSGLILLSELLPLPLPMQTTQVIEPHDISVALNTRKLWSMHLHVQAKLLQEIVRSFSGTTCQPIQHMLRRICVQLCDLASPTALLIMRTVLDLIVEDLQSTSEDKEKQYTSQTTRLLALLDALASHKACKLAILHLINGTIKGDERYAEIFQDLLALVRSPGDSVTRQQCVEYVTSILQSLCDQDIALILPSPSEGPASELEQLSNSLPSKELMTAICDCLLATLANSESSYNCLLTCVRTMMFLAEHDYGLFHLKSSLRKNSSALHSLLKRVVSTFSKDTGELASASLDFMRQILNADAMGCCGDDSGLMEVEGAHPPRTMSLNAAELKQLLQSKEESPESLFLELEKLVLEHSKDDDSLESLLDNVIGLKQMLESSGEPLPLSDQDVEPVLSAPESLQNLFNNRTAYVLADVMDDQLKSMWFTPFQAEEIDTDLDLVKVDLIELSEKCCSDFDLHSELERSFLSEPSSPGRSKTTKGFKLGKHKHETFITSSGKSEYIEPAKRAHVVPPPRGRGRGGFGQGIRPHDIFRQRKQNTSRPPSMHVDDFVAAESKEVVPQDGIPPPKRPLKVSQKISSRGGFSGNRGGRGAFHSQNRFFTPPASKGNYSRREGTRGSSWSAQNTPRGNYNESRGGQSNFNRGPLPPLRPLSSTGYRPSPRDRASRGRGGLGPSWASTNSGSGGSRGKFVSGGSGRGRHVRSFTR
UniProt A2A7S8: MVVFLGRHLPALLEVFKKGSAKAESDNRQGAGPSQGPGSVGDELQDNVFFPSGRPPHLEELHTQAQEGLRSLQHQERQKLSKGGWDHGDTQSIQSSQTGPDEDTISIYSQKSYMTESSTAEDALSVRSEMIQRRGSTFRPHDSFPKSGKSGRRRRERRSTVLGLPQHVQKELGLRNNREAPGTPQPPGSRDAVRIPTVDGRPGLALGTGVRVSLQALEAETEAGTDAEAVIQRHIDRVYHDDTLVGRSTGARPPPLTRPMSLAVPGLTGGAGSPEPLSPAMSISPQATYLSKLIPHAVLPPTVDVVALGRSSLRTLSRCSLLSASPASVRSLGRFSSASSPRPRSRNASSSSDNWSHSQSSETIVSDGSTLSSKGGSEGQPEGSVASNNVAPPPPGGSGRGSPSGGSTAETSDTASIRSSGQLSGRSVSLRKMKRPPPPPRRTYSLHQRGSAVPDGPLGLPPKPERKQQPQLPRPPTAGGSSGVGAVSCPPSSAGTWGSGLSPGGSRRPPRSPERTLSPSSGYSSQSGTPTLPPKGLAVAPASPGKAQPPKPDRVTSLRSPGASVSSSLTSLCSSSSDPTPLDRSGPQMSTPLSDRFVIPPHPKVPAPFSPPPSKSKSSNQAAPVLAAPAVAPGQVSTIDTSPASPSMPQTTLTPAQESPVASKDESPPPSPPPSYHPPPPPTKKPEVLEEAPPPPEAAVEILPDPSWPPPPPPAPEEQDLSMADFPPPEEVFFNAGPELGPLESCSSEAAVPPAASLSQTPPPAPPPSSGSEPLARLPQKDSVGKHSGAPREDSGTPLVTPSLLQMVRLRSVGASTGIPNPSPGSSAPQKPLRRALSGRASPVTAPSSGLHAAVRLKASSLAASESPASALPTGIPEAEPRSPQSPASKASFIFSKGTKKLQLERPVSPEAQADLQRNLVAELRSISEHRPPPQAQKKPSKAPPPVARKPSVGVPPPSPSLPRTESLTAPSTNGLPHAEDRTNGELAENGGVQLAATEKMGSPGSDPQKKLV
UniProt A2AIL4: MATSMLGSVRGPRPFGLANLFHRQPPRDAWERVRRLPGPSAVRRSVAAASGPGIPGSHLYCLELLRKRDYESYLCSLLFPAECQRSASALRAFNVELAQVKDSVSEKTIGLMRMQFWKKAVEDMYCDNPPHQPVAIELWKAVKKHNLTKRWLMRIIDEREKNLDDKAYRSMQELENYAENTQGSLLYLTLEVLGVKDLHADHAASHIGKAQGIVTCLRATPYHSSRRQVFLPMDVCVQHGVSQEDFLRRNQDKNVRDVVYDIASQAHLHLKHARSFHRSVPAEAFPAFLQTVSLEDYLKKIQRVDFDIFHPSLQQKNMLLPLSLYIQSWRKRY
UniProt A6PWD2: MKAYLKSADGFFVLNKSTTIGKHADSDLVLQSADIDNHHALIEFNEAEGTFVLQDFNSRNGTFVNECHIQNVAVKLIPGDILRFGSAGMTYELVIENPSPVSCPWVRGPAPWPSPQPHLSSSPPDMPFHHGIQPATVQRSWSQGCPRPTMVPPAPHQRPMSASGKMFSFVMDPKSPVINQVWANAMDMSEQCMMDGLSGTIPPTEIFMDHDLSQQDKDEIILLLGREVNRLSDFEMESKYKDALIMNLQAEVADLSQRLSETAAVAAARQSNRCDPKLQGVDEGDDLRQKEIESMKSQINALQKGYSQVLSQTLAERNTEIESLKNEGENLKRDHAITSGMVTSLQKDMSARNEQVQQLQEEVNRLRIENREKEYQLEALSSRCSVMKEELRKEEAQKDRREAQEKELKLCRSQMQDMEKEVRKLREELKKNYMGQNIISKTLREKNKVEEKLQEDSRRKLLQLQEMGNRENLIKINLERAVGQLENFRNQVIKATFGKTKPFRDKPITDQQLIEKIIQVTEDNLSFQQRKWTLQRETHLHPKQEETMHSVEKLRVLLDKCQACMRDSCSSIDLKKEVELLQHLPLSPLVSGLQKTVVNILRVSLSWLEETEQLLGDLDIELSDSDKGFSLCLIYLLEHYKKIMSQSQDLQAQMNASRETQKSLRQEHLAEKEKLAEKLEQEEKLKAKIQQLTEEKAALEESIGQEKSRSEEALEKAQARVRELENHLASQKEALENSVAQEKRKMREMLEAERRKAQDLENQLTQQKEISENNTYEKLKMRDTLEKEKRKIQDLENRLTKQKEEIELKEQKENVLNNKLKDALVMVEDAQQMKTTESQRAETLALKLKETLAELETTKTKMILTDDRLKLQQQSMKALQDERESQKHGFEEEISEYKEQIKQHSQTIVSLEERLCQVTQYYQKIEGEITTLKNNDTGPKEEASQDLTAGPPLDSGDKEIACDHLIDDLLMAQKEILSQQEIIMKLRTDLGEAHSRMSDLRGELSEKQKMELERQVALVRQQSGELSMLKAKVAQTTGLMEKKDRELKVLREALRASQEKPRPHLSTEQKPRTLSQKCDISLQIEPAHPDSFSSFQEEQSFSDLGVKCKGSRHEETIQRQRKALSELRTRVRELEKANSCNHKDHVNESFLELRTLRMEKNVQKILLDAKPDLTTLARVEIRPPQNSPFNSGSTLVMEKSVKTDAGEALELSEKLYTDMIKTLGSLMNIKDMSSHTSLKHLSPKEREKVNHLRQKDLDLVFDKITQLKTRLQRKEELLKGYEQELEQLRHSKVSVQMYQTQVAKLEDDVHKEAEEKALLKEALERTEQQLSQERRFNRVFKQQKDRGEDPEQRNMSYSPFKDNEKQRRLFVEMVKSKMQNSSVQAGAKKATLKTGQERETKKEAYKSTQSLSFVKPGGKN
UniProt A7XUY5: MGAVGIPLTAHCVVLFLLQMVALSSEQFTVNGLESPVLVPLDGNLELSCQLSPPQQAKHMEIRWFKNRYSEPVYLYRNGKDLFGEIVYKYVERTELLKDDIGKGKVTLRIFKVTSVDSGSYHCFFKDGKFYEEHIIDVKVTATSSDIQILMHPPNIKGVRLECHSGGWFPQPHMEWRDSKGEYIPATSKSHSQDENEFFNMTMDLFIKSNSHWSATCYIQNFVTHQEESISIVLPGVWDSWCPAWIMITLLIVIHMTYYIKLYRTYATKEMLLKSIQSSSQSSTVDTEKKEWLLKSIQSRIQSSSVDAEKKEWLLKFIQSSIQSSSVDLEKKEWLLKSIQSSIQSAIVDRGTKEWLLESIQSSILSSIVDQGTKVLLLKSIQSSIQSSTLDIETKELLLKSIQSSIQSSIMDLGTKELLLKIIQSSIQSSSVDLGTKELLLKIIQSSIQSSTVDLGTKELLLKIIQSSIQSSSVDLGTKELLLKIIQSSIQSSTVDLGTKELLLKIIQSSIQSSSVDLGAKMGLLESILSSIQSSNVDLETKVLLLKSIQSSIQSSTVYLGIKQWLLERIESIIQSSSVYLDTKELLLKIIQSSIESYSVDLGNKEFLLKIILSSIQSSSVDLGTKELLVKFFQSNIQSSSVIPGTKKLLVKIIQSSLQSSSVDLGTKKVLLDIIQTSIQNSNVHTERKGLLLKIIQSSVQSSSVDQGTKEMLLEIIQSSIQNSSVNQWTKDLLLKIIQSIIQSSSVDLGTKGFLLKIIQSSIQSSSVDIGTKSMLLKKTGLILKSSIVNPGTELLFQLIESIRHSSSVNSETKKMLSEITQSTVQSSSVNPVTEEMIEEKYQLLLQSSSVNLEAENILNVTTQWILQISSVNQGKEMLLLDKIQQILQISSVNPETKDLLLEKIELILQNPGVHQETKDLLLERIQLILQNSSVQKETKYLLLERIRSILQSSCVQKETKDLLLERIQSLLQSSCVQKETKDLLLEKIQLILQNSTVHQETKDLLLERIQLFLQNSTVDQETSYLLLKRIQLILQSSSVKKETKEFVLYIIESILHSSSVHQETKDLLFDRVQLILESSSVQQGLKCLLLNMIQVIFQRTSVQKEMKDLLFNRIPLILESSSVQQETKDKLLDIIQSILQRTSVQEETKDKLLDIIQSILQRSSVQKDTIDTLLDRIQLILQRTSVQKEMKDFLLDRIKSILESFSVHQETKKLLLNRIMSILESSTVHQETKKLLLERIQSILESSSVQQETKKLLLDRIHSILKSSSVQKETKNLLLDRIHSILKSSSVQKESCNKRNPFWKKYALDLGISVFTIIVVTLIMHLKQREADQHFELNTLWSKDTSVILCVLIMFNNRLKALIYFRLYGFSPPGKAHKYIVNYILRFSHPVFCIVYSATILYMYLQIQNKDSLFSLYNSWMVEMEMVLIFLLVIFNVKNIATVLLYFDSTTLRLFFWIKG

Compound: CN[C@@H]1C[C@H]2O[C@@](C)([C@@H]1OC)n1c3ccccc3c3c4c(c5c6ccccc6n2c5c31)C(=O)NC4 [staurosporine]
Assay: log2 fold change of tryptic peptide abundance, ligand vs vehicle (limited proteolysis) (log2 ratio); higher = more trypsin-susceptible (destabilized)
Conditions: ligand concentration: 20 uM; sample: mouse liver crude lysate; replicate design: treated separately

## UniProt A2RSQ0 (peptide sequence: QEHLTDSPVALGPERR, peptide start residue: 816)
  log2 fold change: 0.471

## UniProt A2A6T1 (peptide sequence: LQTLVGVLR, peptide start residue: 195)
  log2 fold change: 0.268

## UniProt A2BE28 (peptide sequence: ELLVSYEEEQFKVLEK, peptide start residue: 255)
  log2 fold change: -0.59

## UniProt A6X935 (peptide sequence: GSEMVVAGK, peptide start residue: 488)
  log2 fold change: -0.169

## UniProt B1AX39 (peptide sequence: RPHVEETDKR, peptide start residue: 409)
  log2 fold change: -0.597

## UniProt A2A884 (peptide sequence: RPWSPSKEAGSR, peptide start residue: 1930)
  log2 fold change: 0.296

## UniProt A2AIV8 (peptide sequence: LKEECELSSAELKR, peptide start residue: 164)
  log2 fold change: 0.421

## UniProt A2A8L5 (peptide sequence: FVSANLPCNK, peptide start residue: 1647)
  log2 fold change: -0.288

## UniProt A2AWA9 (peptide sequence: QKVDDCDRCR, peptide start residue: 959)
  log2 fold change: 0.515

## UniProt B2KF05 (peptide sequence: ETLTYAQAQR, peptide start residue: 29)
  log2 fold change: 0.101

## UniProt A2AKQ0 (peptide sequence: QHAPVKGEAPAK, peptide start residue: 8)
  log2 fold change: -0.0311

## UniProt A2AIV2 (peptide sequence: CHFYEILSEIKR, peptide start residue: 557)
  log2 fold change: 0.482

## UniProt B1ARW8 (peptide sequence: AGLGLGGRPPPQPPRDER, peptide start residue: 22)
  log2 fold change: 0.138

## UniProt A2RSY1 (peptide sequence: GKIPTLIDR, peptide start residue: 220)
  log2 fold change: 0.398

## UniProt A2AR50 (peptide sequence: EDLAGPSAGSSSAR, peptide start residue: 300)
  log2 fold change: 0.276

## UniProt A2A995 (peptide sequence: NDDPKTEVAGR, peptide start residue: 528)
  log2 fold change: 0.295

## UniProt B1AZ99 (peptide sequence: DGLRDDVEDAVHK, peptide start residue: 225)
  log2 fold change: 0.0905

## UniProt A2A7S8 (peptide sequence: ASPVTAPSSGLHAAVR, peptide start residue: 841)
  log2 fold change: -0.137

## UniProt A2AS55 (peptide sequence: LRDLQEELAVAR, peptide start residue: 19)
  log2 fold change: -0.557

## UniProt A7MCT6 (peptide sequence: ETQVQWLR, peptide start residue: 302)
  log2 fold change: -0.206

## UniProt A2AIL4 (peptide sequence: VDFDIFHPSLQQK, peptide start residue: 304)
  log2 fold change: 0.332

## A0A087WPF7 (peptide sequence: KGEPAYENPKK, peptide start residue: 966), A0A087WPF7
  log2 fold change: 0.0893

## UniProt A2AJI0 (peptide sequence: TAEGLLPFAEAEAFLKK, peptide start residue: 818)
  log2 fold change: 0.619

## UniProt A3KGB4 (peptide sequence: VLTAYAYRNPK, peptide start residue: 557)
  log2 fold change: 0.298

## UniProt B2RQC6 (peptide sequence: TLGVDLVALATR, peptide start residue: 1229)
  log2 fold change: -0.506

## UniProt A2AKB9 (peptide sequence: QGLGAGLGGPGAR, peptide start residue: 117)
  log2 fold change: 0.193

## UniProt A2ABV5 (peptide sequence: LPGMSPANPSLHSPVPDVSHSPR, peptide start residue: 1129)
  log2 fold change: -0.267

## UniProt A6PWD2 (peptide sequence: LYTDMIK, peptide start residue: 1215)
  log2 fold change: 0.157

## UniProt A7XUY5 (peptide sequence: EMKDFLLDRIK, peptide start residue: 1190)
  log2 fold change: 0.512

## UniProt A3KMN5 (peptide sequence: IKEQANAPLIKPPAHPSAILTVLR, peptide start residue: 95)
  log2 fold change: -0.451
